Measured values as given in patent US20060035907A1, “Methods of treating abnormal cell growth using c-MET and m-TOR inhibitors” (priority 2004, published 2006).
At least one structure is not confirmed: it was looked up by name or label, or the drawing left a doubt.

Test system: TPR-MET transformed BaF3 cells
Assay: Cell growth of TPR-MET transformed BaF3 cells (MTT assay or trypan blue exclusion)
Format: cell-based, murine
Details: 3 day culture
Experimental: Cells. The murine pre-B cell line BaF3 was grown in RPMI 1640 containing 10% fetal calf serum and 10% WEHI-conditioned medium as a source of murine IL-3. BaF3 cell lines transfected with a BCR/ABL, TEUABL, TEUJAK2, or TEUPDGFβR cDNA were grown in the absence of growth factors. A TPR/MET expressing BaF3 cell line was generated by transfection of an expression vector containing the TPR/MET cDNA as previously described (Sattler, M., Pride, Y. B., Ma, P., Gramlich, J. L., Chu, S. C., Quinnan, L. A., Shirazian, S., Liang, C., Podar, K., Christensen, J. G. & Salgia, R. (2003). Cancer Res, 63, 5462-9.). The number of viable cells after treatment with DMSO or PHA665752 was determined using an MTT assay (In Vitro Toxicology Assay Kit, Sigma, St. Louis, Mo.) or trypan blue exclusion.
Referring to FIG. 1, BaF3 cells lines transformed by tyrosine kinase oncogenes were used to determine cell growth (A-C) or transwell migration (D) in response to the small molecule c-MET kinase inhibitor PHA665752. A: The relative growth of BaF3 cells transformed by TPR-MET in response to different concentrations of PHA665752 was determined after 18 h (n=3). […] D: Cells were treated for 18 hr with the indicated dose of PHA665752 and the spontaneous transwell migration relative to DMSO-treated cells determined (n=4). […]

SMILES: CO[C@H]1C[C@@H]2CC[C@@H](C)[C@@](O)(O2)C(=O)C(=O)N2CCCC[C@H]2C(=O)O[C@H]([C@H](C)C[C@@H]2CC[C@@H](O)[C@H](OC)C2)CC(=O)[C@H](C)/C=C(\C)[C@@H](O)[C@@H](OC)C(=O)[C@H](C)C[C@H](C)/C=C/C=C/C=C/1C [rapamycin, reference compound]
- cell growth, rapamycin alone (absence of PHA665752, rapamycin 0.01 nM to 10 nM): reduced cell growth of the BaF3.TPR-MET cells in a dose-dependent manner
- cell growth, rapamycin together with PHA665752 (presence of PHA665752 (0.05 μM), rapamycin 0.01 nM to 10 nM): cooperated with the c-MET inhibitor in inhibiting cell growth
